Hit rate of the full screen: of about 330,000 compounds, about 610 (0.18%) were called active. Inconclusive means that the source gave no clear call. Such entries were picked first, then a sample of the others. Calls come from the whole dose curve. Potencies of inconclusive entries are doubtful fits and often do not repeat.
Assay: qHTS of Yeast-based Assay for SARS-CoV PLP; note: nearly all actives have a fitted effect of over 55% in size
Conditions: S. cerevisiae expressing SARS-CoV PLpro; Potency: growth rescue; series mostly up to 32.9 µM
Potency is the fitted concentration of half-maximal effect.

Structure (SMILES) | Potency
COc1cccc(CNC(=O)c2ccc(CS(=O)(=O)Cc3ccccc3C)o2)c1 | inconclusive: 3.98 µM [activator, single point]
CCN1CCN(C(=S)c2ccc(OC)cc2)CC1 | inactive
O=C(Nc1ncccn1)c1cccc(F)c1 | inactive
CC(OC(=O)c1nc(Cl)ccc1Cl)C(=O)Nc1ccc2c(c1)OCCO2 (centres undefined) | inactive
COc1ccc(NC(=O)O/N=C2/CCCc3ccc(OC)cc32)cc1 | inactive
O=C(c1ccc(Cl)c(S(=O)(=O)N2CCCCC2)c1)N1CCN(c2ccccc2)CC1 | inactive
O=C(c1cc2cc(F)ccc2[nH]1)N1CCN(C(=O)c2ccco2)CC1 | inactive
COc1ccc(NC(=O)COC(=O)Cc2ccc(-c3ccccc3)cc2)c(OC)c1 | inconclusive: 1.78 µM [activator, full curve, poor fit]
O=C(Cc1coc2ccc3ccccc3c12)NCc1cccs1 | inconclusive: 17.8 µM [activator, partial curve, poor fit]
COC(=O)C1=C(O)/C(=C\c2ccc(O)c(OC)c2)N=C1C | inactive
COCCNC(=O)c1cc(-c2ccc3c(c2)OCO3)on1 | inconclusive: 20 µM [activator, single point]
CCCCc1nnc(NC(=O)C2CC(=O)N(Cc3ccccc3)C2)s1 (centres undefined) | inconclusive: 20 µM [activator, single point]
COc1ccc(NC(=O)CN(C)C(=O)c2sc3ccccc3c2Cl)cc1 | inactive
S=c1[nH]c(-c2cccs2)cn1-c1ccccc1 | active: 11.2 µM
COc1ccccc1N1CCN(c2nc3c(C)cccn3c(=O)c2C=O)CC1 | inconclusive: 3.98 µM [activator, single point]
N#CC1=C(N)Oc2c(c(=O)oc3ccccc23)C1c1cccnc1 (centres undefined) | inconclusive: 4.47 µM [activator, single point]
COc1ccccc1C(=O)NCCC(=O)N(C)Cc1ccc(C)o1 | inconclusive: 20 µM [activator, single point]
CCc1ccccc1NC(=O)CNC(=O)CSC(=S)N1CCCC1 | inactive
COCCNC(=O)C1CCC(CNS(=O)(=O)c2cccc3nsnc23)CC1 (centres undefined) | inconclusive: 0.794 µM [activator, full curve]
Cc1ccnc2c(N3C(=O)C4C5c6ccccc6C(c6ccccc65)C4C3=O)cccc12 (centres undefined) | inactive
O=C(CSCc1ccccc1)NNC(=S)Nc1cccc(Cl)c1Cl | inactive
COc1ccccc1NC(=O)CCn1c(=O)c2cccn2c2ccccc21 | inconclusive: 11.2 µM [activator, single point]
COc1cccc(CN2CC(C(=O)NCCOc3ccccc3)CCC2=O)c1 (centres undefined) | inconclusive: 4.47 µM [activator, single point]
Cc1cc(N/N=C/c2c(O)ccc3ccccc23)nc(-c2ccccc2O)n1 | inconclusive: 12.6 µM [activator, single point]
Cc1cc(Cl)ccc1Nc1ncccc1C(N)=O | inactive

Structure (SMILES) | Potency
Cc1ccc(OC(C)C(=O)Nc2ccncc2)cc1 (centres undefined) | inactive
O=C(COc1ccc(Cl)cc1Cl)NC(=O)c1ccccc1 | inconclusive: 4.47 µM [activator, single point]
O=C(N/N=C/c1c(O)n(-c2ccccc2Cl)c(=O)c2ccccc12)c1cccnc1 | active: 5.62 µM
COc1ccccc1S(=O)(=O)CC(O)COc1ccccc1Cl (centres undefined) | inconclusive: 22.4 µM [activator, single point]
CCC1CCCCN1C(=O)C(=O)c1cn(CC(=O)N(CC)CC)c2ccccc12 (centres undefined) | inactive
Cc1ccc(-n2c(C3CC3c3ccc(Cl)cc3)n[nH]c2=S)cc1 (centres undefined) | inconclusive: 11.2 µM [activator, single point]
Cc1cccc(-c2nc(CS(=O)CC(=O)NCC3CCCO3)c(C)o2)c1 (centres undefined) | inconclusive: 22.4 µM [activator, partial curve]
Clc1cccc(/C=N/Nc2ncnc3ccccc23)c1 | inactive
O=C(c1ccc(N2CCOCC2)cc1)c1cccs1 | inactive
COc1ccc(CN(C)CC(=O)Nc2c(C)cccc2C)c(OC)c1 | inconclusive: 20 µM [activator, single point]
O=C(CSc1nc2ccsc2c(=O)n1NC(=O)c1ccccc1)Nc1nccs1 | inactive
COc1ccc(-c2nc3c(c4nnc(SC(C)C(=O)Nc5ccccc5)n24)COC(C)(C)C3)cc1 (centres undefined) | inconclusive: 3.16 µM [activator, partial curve]
COC(=O)Nc1nc2c(C)cccc2s1 | inactive
COc1cc(C)ccc1OCC(=O)OCC(=O)c1[nH]c(C)c(C(C)=O)c1C | inconclusive: 11.2 µM [activator, single point]
CCCc1nc(-c2ccccc2)c(-c2ccc(OC)c(OC)c2)c(=O)[nH]1 | inconclusive: 3.16 µM [activator, single point]
O=C(CCN1C(=O)/C(=C/c2ccccc2Cl)SC1=S)Nc1ccccn1 | inconclusive: 22.4 µM [activator, single point]
CCN(CC)CCOC(=O)c1ccc(NC(=O)C2(c3ccccc3)CCCC2)cc1 | inconclusive: 0.355 µM [activator, full curve, poor fit]
c1ccc(Cn2nnc3c(N4CCc5ccccc54)ncnc32)cc1 | inconclusive: 20 µM [activator, single point]
COc1ccc(-n2cc(CNCc3cnc4ccccn34)c(-c3cccc(F)c3)n2)cc1 | inactive
Nc1c(NCc2ccccc2F)c(=O)[nH]c(=O)n1Cc1ccccc1 | inconclusive: 3.55 µM [activator, single point]
CCOC(=O)c1c(CSC(=N)N)n(-c2ccccc2)c2cc(Br)c(OC(C)=O)cc12 | inactive
COc1cc(Cl)c(C)cc1NC(=O)CN1CCN(C(=O)C2CC2)CC1 | inactive
O=C(C1=C(O)C(=O)N(CCN2CCOCC2)C1c1ccc([N+](=O)[O-])cc1)c1cc2ccccc2o1 (centres undefined) | inactive
O=C(CSc1nnc2ccc(-c3ccc(F)cc3)nn12)N1CCCC1 | inactive
O=C(Nc1ccncc1)Nc1cccc(C(F)(F)F)c1 | inconclusive: 2.51 µM [activator, single point]

Structure (SMILES) | Potency
Cc1ccc(NC(=O)CSCC(=O)Nc2ncc3c(n2)CC(c2ccco2)CC3=O)cc1 (centres undefined) | inconclusive: 3.16 µM [activator, single point]
CNC(=O)CC1C(=O)N(C)C(=S)N1NC(=O)c1ccc(Cl)cc1 (centres undefined) | inconclusive: 0.355 µM [activator, partial curve, poor fit]
C/C(=N\NC(=S)NC(C)C)c1ccc2c(c1)OCCO2 | inconclusive: 11.2 µM [activator, partial curve]
Cc1cc(C)cc(C(=O)OCC(=O)NCc2cccs2)c1 | inactive
CCOc1ccc(NC(=S)NN2C(C)CCCC2C)cc1 (centres undefined) | inconclusive: 20 µM [activator, single point]
CC(NC(=S)Nc1c(Br)cccc1OC(F)F)C(C)(C)C (centres undefined) | inconclusive: 22.4 µM [activator, single point]
Cc1onc(-c2ccccc2)c1C(=O)NC(=S)NNC(=O)c1ccc(O)cc1O | active: 14.1 µM
COc1ccc(-n2c(SCC(=O)NCC3CCCO3)nc3c(c2=O)SC(C)C3)cc1 (centres undefined) | inactive
Cc1ccccc1NC(=S)NC(NC(=O)COc1ccccc1)C(Cl)(Cl)Cl (centres undefined) | inconclusive: 11.2 µM [activator, single point]
CCCC(=O)Nc1ccc(-c2cnc(-c3ccc(NC(=O)CCC)cc3)nc2)cc1 | inconclusive: 7.94 µM [activator, partial curve]
CCOC(=O)c1ccc(NC(=O)C2CCN(C(=O)c3ccc(OC)c(OC)c3)CC2)cc1 | inconclusive: 4.47 µM [activator, partial curve]
C[C@@H](OC(=O)N1CCCCC1)[C@H]1O[C@]2(C)CCCC[C@H]1O2 | inactive
CCOc1nc2ccccc2nc1NS(=O)(=O)c1ccccc1 | inconclusive: 3.16 µM [activator, single point]
O=C(Oc1ccc([N+](=O)[O-])cc1)c1cccnc1 | inconclusive: 7.08 µM [activator, partial curve]
O=S(=O)(NCCc1ccccc1)c1ccc(F)cc1 | inactive
CCOC(=O)N1CCC(N2Cc3cccc(C(=O)N4CCN(C5CCCCC5)CC4)c3C2=O)CC1 | active: 20 µM
CCN1CCN(Cc2ccc(C(=O)Nc3ccc(C)c(NCc4cnc(NC(=O)OC)cn4)c3)cc2C(F)(F)F)CC1 | inactive
Cc1ccc(S(=O)(=O)N2CCOCC2)cc1NC(=O)CSc1nc2ccccc2c(=O)n1Cc1ccccc1 | inconclusive: 0.891 µM [activator, partial curve]
Cc1ccc2c(ccc[n+]2CC(=O)c2ccccc2)c1 | inconclusive: 0.355 µM [activator, full curve, poor fit]
CSCCC(NC=C1C(=O)OC(C)(C)OC1=O)C(=O)O (centres undefined) | inconclusive: 22.4 µM [activator, single point]
Cc1cc2oc3c(c(=O)c2cc1C)C(c1ccc(F)cc1)N(CCCN1CCOCC1)C3=O (centres undefined) | inconclusive: 11.2 µM [activator, partial curve]
COc1ccc(N(CC(=O)Nc2ccc(F)c(F)c2)S(=O)(=O)c2c(C)[nH]c(=O)[nH]c2=O)cc1 | inconclusive: 4.47 µM [activator, single point]
CCC(C)(C)n1nnnc1C(c1cccnc1)N1CCC(Cc2ccccc2)CC1 (centres undefined) | inactive
CCCC(C)NC(=O)c1ccc(OCc2ccc(Cl)cc2)c(OC)c1 (centres undefined) | inconclusive: 22.4 µM [activator, single point]

Sorted by molecular weight (falling): five of the compounds above.
Structure (SMILES) | Potency
CCN1CCN(Cc2ccc(C(=O)Nc3ccc(C)c(NCc4cnc(NC(=O)OC)cn4)c3)cc2C(F)(F)F)CC1 | inactive
CCOC(=O)c1c(CSC(=N)N)n(-c2ccccc2)c2cc(Br)c(OC(C)=O)cc12 | inactive
O=C(N/N=C/c1c(O)n(-c2ccccc2Cl)c(=O)c2ccccc12)c1cccnc1 | active: 5.62 µM
O=C(c1cc2cc(F)ccc2[nH]1)N1CCN(C(=O)c2ccco2)CC1 | inactive
CCOc1nc2ccccc2nc1NS(=O)(=O)c1ccccc1 | inconclusive: 3.16 µM [activator, single point]

From PubChem BioAssay AID485353 (National Center for Advancing Translational Sciences (NCATS), 2010)
